This is an account of results in patent US20130244929A1 (priority 2010, published 2013).

This series in a line: general procedure: solution-phase peptide synthesis; EDCI/HOBT/DIPEA; HATU/DIPEA. The settings on record: trifluoroacetate.

Substance “methyl(8S,11S,14S)-14-[{(2S)-2-{[(benzyloxy)carbonyl]amino}-6-[(tert-butoxycarbonyl)amino]hexanoyl}(methyl)amino]-3,18-dimethoxy-11-methyl-10,13-dioxo-9,12-diazatricyclo[13.3.1.1^2,6]icosa-1(19),2(20),3,5,15,17-hexaene-8-carboxylate” had a step yield (coupling step) of 72%.
Regarding “methyl(8S,11S,14S)-14-[{(2S)-2-amino-6-[(tert-butoxycarbonyl)amino]hexanoyl}(methyl)amino]-3,18-dimethoxy-11-methyl-10,13-dioxo-9,12 diazatricyclo[13.3.1.1^2,6]icosa-1(19),2(20),3,5,15,17-hexaene-8-carboxylate”, the step yield (late stage modification step) was determined as 93%.
“methyl(8S,11S,14S)-14-[{(2S)-6-[(tert-butoxycarbonyl)amino]-2-[(3-{[(4′-propylbiphenyl-4-yl)carbonyl]amino}propanoyl)amino]hexanoyl}(methyl)amino]-3,18-dimethoxy-11-methyl-10,13-dioxo-9,12-diazatricyclo[13.3.1.1^2,6]icosa-1(19),2(20),3,5,15,17-hexaene-8-carboxylate” displayed a step yield (coupling step) of 76%.
“(5S)-6-[[(7S,10S,13S)-3,18-dimethoxy-13-(methoxycarbonyl)-10-methyl-8,11-dioxo-9,12-diazatricyclo[13.3.1.1^2,6]icosa-1(19),2(20),3,5,15,17-hexaen-7-yl](methyl)amino]-6-oxo-5-[(3-{[(4′-propylbiphenyl-4-yl)carbonyl]amino}propanoyl)amino]hexan-1-aminium trifluoroacetate”: the step yield (late stage modification step) came out at 100%.
Same read-out and setting: to “(5S)-6-[[(7S,10S,13S)-13-carboxy-3,18-dihydroxy-10-methyl-8,11-dioxo-9,12-diazatricyclo[13.3.1.1^2,6]icosa-1(19),2(20),3,5,15,17-hexaen-7-yl](methyl)amino]-6-oxo-5-[(3-{[(4′-propylbiphenyl-4-yl)carbonyl]amino}propanoyl)amino]hexan-1-aminium trifluoroacetate” belongs 54%.
In the case of “6-[[(7S,10S,13S)-13-(aminocarboxyl)-3,18-dihydroxy-10-methyl-8,11-dioxo-9,12-diazatricyclo[13.3.1.1^2,6]icosa-1(19),2(20),3,5,15,17-hexaen-7-yl](methyl)amino]-6-oxo-5-[(3-{[(4′-propylbiphenyl-4-yl)carbonyl]amino}propanoyl)amino]hexan-1-aminium trifluoroacetate”, the step yield (late stage modification step) came to 67%.
